Among the data in PMC12536042 are binding values, retold here.

Chains of the proteins cited; added tags and fusions are not shown.
UniProt Q8BTW9: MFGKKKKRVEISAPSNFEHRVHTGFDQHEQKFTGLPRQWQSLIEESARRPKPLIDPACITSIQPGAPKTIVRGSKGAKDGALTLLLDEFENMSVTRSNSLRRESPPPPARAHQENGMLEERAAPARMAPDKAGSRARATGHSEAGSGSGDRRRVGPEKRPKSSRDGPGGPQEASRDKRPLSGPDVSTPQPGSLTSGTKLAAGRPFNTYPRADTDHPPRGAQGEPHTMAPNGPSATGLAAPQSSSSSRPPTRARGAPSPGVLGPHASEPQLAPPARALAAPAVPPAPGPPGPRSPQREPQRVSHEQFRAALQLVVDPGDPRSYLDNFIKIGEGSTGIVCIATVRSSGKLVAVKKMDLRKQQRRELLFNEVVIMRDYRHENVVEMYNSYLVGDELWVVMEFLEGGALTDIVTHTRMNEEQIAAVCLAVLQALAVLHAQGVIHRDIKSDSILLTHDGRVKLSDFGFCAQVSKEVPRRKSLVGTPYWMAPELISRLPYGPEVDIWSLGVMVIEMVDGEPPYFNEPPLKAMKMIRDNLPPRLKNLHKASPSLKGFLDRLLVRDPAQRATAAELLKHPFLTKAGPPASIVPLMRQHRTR
UniProt Q922U2: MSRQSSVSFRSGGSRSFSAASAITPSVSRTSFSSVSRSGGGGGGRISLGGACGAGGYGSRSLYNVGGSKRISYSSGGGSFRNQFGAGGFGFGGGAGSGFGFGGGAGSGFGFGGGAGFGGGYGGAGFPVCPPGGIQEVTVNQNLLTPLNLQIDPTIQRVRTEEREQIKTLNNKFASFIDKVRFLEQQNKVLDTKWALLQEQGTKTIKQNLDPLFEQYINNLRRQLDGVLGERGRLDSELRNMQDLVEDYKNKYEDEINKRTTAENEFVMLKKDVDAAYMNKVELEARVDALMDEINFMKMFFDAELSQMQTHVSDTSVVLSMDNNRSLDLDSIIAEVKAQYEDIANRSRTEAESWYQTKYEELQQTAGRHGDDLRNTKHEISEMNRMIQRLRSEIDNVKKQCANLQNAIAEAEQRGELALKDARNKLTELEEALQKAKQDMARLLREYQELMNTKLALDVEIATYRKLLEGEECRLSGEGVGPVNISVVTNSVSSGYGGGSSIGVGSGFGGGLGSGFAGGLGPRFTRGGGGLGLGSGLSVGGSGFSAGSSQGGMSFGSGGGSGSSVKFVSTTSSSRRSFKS
UniProt P11404: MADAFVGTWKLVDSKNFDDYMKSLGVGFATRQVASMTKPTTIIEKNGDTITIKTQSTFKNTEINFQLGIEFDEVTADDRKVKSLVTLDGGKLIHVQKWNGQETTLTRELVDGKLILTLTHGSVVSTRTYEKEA

The target of the experiment is p21-activated kinase 4 (Pak4) (mouse (endogenous in TSPCs and tendon tissue of C57BL/6 mice)) (UniProt Q8BTW9). The experiment is described as follows: affinity purification with mass spectrometry; antibody on magnetic beads (Pierce Direct Magnetic IP/CO-IP kit), lysate overnight at 4 °C; sham group and tendon lesions at 7 days after burn/tenotomy, n = 3; hits identified in all three BTT samples and not in the control group.

These are yes or no findings as the source states them, for the method shown. In cells and extracts the contact can be indirect. Here binding means that the protein was enriched with, or labelled near, the bait; the list need not be complete.

Take Krt5 (from UniProt Q922U2 1-580): the binding entry is “binds”. The entry for “fatty acid binding protein 3 (Fabp3) (from UniProt P11404 1-133)” is “binds”.
